# Measurements published in PubChem BioAssay AID1347423 (Functional Genomics Laboratory (NCATS/FGL), 2020).
# Out of some 52,000 sequences screened, about 210 (0.4%) were called active.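 Rule for the calls: active = gene whose silencing raises cell survival under the drug, median off-target-corrected z-score across its silencing RNAs 2 or more; inactive = the rest.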 This is one part of the list.
# Assay: Resistance to Poly (ADP-Ribose) Polymerase inhibitor: Gene Identification via Genome-wide siRNA Screen
# Settings: mouse BRCA2 R2336H ES cells, olaparib, CellTiter-Glo viability; hits give high values
# Procedure, shortened: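 Genome-wide siRNA screen (3 siRNAs/gene, 20 nM) in mouse ES cells carrying hypomorphic BRCA2 R2336H; olaparib 500 nM added 48 h post-transfection, CellTiter-Glo viability 72 h later. Normalized to plate-median negative control; MAD z-scores, gene median, seed-adjusted.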
row,Sequence,z-score
1,GGGUUCUGUUGACUAACUATT against Hip2,inactive: 1.08
2,GGCUUUUCAGCAGGUUUAATT against Ube2g1,inactive: -1.69
3,GGAGUUUCAAGAAAAAAGGTT against BC021891,inactive: 0.462
4,CCUAUUAUAGGACAAAGUATT against Efhc2,inactive: 0.558
5,GGCUUCCAUCCUUUCUUUGTT against Ilf2,inactive: 0.657
6,CGUUUUGUACAGAUAUACUTT against ORF9,inactive: 0.184
7,GGAACUGUUAGAAAAUGGATT against Sh2d3c,inactive: 0.891
8,CCUAACACCAGGAACCAAATT against Upk2,inactive: -0.991
9,GGAAAAACAAACCUAGCAUTT against Ets1,inactive: 0.971
10,GUAGAGAAGGAAGAGUGCCTT against Fshb,inactive: 0.105
11,CCUACAACGGGAAAACCGATT against BC063749,inactive: 0.528
12,GCUUAUGUUAAACCAGAGATT against Syt8,inactive: -0.391
13,ACCAGCACGACAGAUGCUATT against Pla2g12a,inactive: 0.603
14,GGCUUCCACAUAAAAACGATT against 2410015N17Rik,inactive: -0.0731
15,GCAUGAUGAUGGAGACCGATT against Sox1,inactive: -0.796
16,GUGAUUAGCCGAAAGGGCUTT against Olfr1032,inactive: 1.25
17,GCCUUAGGAAAUUCUCAAUTT against C430048L16Rik,inactive: -0.919
18,GGUCAGAUGCAGUGCAAGATT against Cldn4,inactive: -1.02
19,CCGGUAUUGCUGUUCCUGGTT against Agxt,inactive: 0.223
20,GGUUAAGAGUAUCGUCAGCTT against Katnal1,inactive: -0.221
21,GGUAUUCUUGGUGUUAGAATT against 4933402O15Rik,inactive: 0.515
22,GCGAAAACUUCGGAUCUAUTT against Smarcd2,inactive: 1.16
23,GGCAUUUCUGUUCUGUAAGTT against Sh3bgrl,inactive: 0.378
24,GCAGAAGUCAGUCAUGAAUTT against Fbf1,inactive: 0.961
25,GGGCAUAACGUGUUCACAUTT against 1110032A04Rik,inactive: -0.12
26,GCAGUUUGGUCACCUACCATT against 4930583K01Rik,inactive: -2.18
27,CCAUCAGGUUGACGACUUUTT against Olfr90,inactive: -2.07
28,CCUCUGUGAUCCCUAAGAATT against Ubd,inactive: -0.259
29,CCCGCUAUUUGGUGCUAACTT against Amh,inactive: 0.646

# Another view of some results above.
row | Sequence | z-score
1 | GGGUUCUGUUGACUAACUATT against Hip2 | inactive: 1.08
2 | GGCUUUUCAGCAGGUUUAATT against Ube2g1 | inactive: -1.69
4 | CCUAUUAUAGGACAAAGUATT against Efhc2 | inactive: 0.558
15 | GCAUGAUGAUGGAGACCGATT against Sox1 | inactive: -0.796
16 | GUGAUUAGCCGAAAGGGCUTT against Olfr1032 | inactive: 1.25
18 | GGUCAGAUGCAGUGCAAGATT against Cldn4 | inactive: -1.02
25 | GGGCAUAACGUGUUCACAUTT against 1110032A04Rik | inactive: -0.12
